Data as given in paper PMC7862700.
The list shows a part of the results, in another mix than the full data. For some of these results: At the low end of the ranking, values are background and their order means little. The list shows a part of the results. For some of these results: Construct or isoform of the protein are uncertain.

Sequences of proteins named here, by UniProt entry; tags and fusion partners are left off. A change or cut given only in a name is not applied to a line headed by its entry.
UniProt Q00613: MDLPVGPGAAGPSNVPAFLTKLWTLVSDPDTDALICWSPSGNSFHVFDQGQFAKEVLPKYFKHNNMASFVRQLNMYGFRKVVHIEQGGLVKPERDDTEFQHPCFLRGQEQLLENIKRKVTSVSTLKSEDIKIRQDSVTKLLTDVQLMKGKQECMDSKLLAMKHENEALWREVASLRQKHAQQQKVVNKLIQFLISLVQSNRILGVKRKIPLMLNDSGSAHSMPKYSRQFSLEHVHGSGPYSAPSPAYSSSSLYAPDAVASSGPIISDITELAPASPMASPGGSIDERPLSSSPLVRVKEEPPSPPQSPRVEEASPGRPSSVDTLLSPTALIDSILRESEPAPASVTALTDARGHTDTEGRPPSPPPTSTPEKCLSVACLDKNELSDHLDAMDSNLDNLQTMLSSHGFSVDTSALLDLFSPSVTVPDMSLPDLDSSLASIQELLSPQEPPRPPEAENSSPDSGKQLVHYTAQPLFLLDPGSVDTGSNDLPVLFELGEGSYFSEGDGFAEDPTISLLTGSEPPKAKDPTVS

Key:
[1] = target: HSF1 (UniProt Q00613); test: DAPPL (digital affinity profiling via proximity ligation, sequencing); conditions: 10 mM Tris-HCl pH 7.5, 50 mM NaCl, 1 mM DTT, 4% glycerol, room temperature, 30 min; GST-TFs on glutathione beads, 16-mer random dsDNA library, 0.1% …; high values mean tight binding; double strand, one strand shown; scale: fold enrichment (6-mer frequency, TF over GST control)
[2] = target: T1, ELF2 (UniProt Q15723); test: as above; conditions: 10 mM Tris-HCl pH 7.5, 50 mM NaCl, 1 mM DTT, 4% glycerol, room temperature, 30 min; GST-TFs on glutathione beads, 16-mer random dsDNA library, 0.1% …; high values mean tight binding; double strand, one strand shown; scale: fold enrichment (6-mer frequency, TF over GST control)
T1 sequence: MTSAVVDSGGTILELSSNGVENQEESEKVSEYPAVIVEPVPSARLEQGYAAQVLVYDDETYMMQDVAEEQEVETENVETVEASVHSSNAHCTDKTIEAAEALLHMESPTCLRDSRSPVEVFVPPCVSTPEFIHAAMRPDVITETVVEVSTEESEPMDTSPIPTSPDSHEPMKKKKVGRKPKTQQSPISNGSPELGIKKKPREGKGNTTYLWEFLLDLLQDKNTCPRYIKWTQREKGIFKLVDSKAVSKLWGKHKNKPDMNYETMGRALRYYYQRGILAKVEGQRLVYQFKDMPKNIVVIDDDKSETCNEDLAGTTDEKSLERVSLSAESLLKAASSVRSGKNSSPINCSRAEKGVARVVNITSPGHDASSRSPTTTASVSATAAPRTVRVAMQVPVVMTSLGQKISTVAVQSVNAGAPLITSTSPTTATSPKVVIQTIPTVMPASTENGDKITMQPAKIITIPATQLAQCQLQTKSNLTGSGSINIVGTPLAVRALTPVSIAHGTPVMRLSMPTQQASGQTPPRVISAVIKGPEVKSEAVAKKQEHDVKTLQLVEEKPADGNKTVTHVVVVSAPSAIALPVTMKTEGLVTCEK

Sequence | binding signal [1] | binding signal [2]
ACAGCC | 0.841 | 0.996
GGCTGC | 0.739 | 0.943
CACTGA | 0.915 | 0.94
CCGGAT | 1.63 | 4.27
GCTGTT | 0.909 | 1.1
AGCTGA | 0.971 | 1.03
TAACCA | 1.16 | 1.09
ACTCAA | 1.07 | 1.15
GCTAAA | 1.17 | 1.06
GCCGCT | 0.926 | 1.04
AAGTTC | 1.94 | 1.6
TTCGAT | 1.79 | 1.27
TGTGAT | 0.916 | 0.953
AAAAAT | 1.5 | 1.34
GTTCAG | 0.758 | 0.877
ACTATT | 1.33 | 1.35
AACACC | 0.985 | 1.08
TACAGG | 0.994 | 1.28
CCGACG | 1.02 | 1.2
TGGTCA | 0.753 | 0.957
GAACTA | 1.32 | 1.5

A second format for some results above:

| Sequence | binding signal [1] | binding signal [2] |
| --- | --- | --- |
| GTTCAG | 0.758 | 0.877 |
| ACTATT | 1.33 | 1.35 |

(listing goes on)

Sequence | binding signal [1] | binding signal [2]
AAACAA | 1.23 | 1.33
TTCAGA | 1.09 | 0.927
CCGCGC | 0.913 | 1.14
ACGGCA | 0.82 | 1.01
ACTGAT | 1.22 | 1.21
ACAAGG | 0.821 | 0.949
CCATCA | 0.998 | 1.09
TGTTAG | 0.897 | 0.936
GGCTAT | 0.921 | 0.976
CCCTCA | 1.03 | 1.09
GGACAT | 0.766 | 1.34
AACGGT | 0.812 | 0.904
GCCGTC | 0.846 | 0.879
AGTAAC | 0.827 | 1.06
GATGCA | 0.883 | 1.1
GCAAAG | 0.946 | 0.881
TTGGAT | 1.21 | 0.942
CATTGA | 0.857 | 0.938
ATTCTT | 1.99 | 1.45
GGACCT | 1.18 | 1.37
